Construct, isoform or probe ends are uncertain for at least one entry. For some of these results: A negative result means that nothing was seen under these conditions. For some of these results: At least one verdict rests on a figure or table, not on a statement of the authors.
system: GST-MaDEAR1; test: EMSA; settings: EMSA kit (Thermo) per manufacturer; 2e-6 umol biotin probe; unlabeled self-competitor 2e-5 to 2e-3 umol; 6% native PAGE; pH and temperature not stated; recombinant protein; protein details: N-terminal GST (pGEX-4T-1); label: 3' biotin

Sequences of proteins named here, by UniProt entry; tags and fusion partners are left off.
UniProt P08515, whole entry: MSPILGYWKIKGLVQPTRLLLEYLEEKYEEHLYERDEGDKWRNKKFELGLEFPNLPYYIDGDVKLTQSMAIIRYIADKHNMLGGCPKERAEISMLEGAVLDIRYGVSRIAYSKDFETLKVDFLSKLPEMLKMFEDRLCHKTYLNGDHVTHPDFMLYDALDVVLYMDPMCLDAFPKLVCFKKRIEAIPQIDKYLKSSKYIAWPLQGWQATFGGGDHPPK

| Sequence | binding result |
| --- | --- |
| CAGCCGTTGGTATCTCATCGTACCGACCACGTTGCAGACACAGCTATG (double strand) [MaEXP3 promoter probe] | binds |
| CCCGCAACAACGTTGCAGATGCACCGACCTCATTCAATTCGTGGGGAAGA (double strand) [MaPG1 promoter probe] | binds |
| CCGCGTCGGTTCATGTGATGTGGATCACGTACAGTTTGCGAGGACGAGCGTCGGCGGCC (double strand) [MaPL3 promoter probe] | binds |
| TATAAGGCTTCCGACAAAGCCGACTACTCAACCGAACCGATCCGAAGAGTCCCGTG (double strand) [MaXTH10 promoter probe] | binds |
| TCCTTCTTCTTCTTCTTCTTCTGCCGACCTCGTCCCACCTCCGAACTGCA (double strand) [MaPME3 promoter probe] | binds |
| TCTTCCTCGCCACGTGAAGACGTCGGCAGCCCGGAACAGCATGTGCTC (double strand) [MaEXP1 promoter probe] | binds |

biological target: GST (UniProt P08515); test: EMSA; settings: EMSA kit (Thermo) per manufacturer; 2e-6 umol biotin probe; unlabeled self-competitor 2e-5 to 2e-3 umol; 6% native PAGE; pH and temperature not stated; recombinant protein; protein details: GST only; label: 3' biotin

| Sequence | binding result |
| --- | --- |
| TCTTCCTCGCCACGTGAAGACGTCGGCAGCCCGGAACAGCATGTGCTC (double strand) [MaEXP1 promoter probe] | no binding |

— paper PMC4939300
